Results published in PMC5149529.
Results are given in words; binding and its absence hold for the method and conditions named. Binding seen in cells or lysates may run through a third protein. Here binding means that the protein was enriched with, or labelled near, the bait; the list need not be complete.

Amino acid sequences for entries named in this document (tags omitted).
UniProt P70288: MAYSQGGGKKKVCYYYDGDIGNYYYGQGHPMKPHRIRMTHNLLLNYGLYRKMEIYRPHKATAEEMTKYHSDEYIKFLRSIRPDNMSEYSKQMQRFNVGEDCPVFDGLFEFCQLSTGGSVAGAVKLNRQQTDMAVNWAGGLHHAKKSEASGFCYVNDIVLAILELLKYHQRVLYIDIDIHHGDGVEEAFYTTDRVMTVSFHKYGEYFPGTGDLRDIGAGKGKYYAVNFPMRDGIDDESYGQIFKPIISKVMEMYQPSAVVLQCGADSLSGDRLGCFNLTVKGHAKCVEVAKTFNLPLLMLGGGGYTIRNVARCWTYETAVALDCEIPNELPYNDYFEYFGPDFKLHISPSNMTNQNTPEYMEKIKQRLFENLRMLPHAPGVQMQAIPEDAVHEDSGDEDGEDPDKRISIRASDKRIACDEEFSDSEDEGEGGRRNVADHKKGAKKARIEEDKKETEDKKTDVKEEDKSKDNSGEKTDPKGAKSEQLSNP
UniProt B1AR17: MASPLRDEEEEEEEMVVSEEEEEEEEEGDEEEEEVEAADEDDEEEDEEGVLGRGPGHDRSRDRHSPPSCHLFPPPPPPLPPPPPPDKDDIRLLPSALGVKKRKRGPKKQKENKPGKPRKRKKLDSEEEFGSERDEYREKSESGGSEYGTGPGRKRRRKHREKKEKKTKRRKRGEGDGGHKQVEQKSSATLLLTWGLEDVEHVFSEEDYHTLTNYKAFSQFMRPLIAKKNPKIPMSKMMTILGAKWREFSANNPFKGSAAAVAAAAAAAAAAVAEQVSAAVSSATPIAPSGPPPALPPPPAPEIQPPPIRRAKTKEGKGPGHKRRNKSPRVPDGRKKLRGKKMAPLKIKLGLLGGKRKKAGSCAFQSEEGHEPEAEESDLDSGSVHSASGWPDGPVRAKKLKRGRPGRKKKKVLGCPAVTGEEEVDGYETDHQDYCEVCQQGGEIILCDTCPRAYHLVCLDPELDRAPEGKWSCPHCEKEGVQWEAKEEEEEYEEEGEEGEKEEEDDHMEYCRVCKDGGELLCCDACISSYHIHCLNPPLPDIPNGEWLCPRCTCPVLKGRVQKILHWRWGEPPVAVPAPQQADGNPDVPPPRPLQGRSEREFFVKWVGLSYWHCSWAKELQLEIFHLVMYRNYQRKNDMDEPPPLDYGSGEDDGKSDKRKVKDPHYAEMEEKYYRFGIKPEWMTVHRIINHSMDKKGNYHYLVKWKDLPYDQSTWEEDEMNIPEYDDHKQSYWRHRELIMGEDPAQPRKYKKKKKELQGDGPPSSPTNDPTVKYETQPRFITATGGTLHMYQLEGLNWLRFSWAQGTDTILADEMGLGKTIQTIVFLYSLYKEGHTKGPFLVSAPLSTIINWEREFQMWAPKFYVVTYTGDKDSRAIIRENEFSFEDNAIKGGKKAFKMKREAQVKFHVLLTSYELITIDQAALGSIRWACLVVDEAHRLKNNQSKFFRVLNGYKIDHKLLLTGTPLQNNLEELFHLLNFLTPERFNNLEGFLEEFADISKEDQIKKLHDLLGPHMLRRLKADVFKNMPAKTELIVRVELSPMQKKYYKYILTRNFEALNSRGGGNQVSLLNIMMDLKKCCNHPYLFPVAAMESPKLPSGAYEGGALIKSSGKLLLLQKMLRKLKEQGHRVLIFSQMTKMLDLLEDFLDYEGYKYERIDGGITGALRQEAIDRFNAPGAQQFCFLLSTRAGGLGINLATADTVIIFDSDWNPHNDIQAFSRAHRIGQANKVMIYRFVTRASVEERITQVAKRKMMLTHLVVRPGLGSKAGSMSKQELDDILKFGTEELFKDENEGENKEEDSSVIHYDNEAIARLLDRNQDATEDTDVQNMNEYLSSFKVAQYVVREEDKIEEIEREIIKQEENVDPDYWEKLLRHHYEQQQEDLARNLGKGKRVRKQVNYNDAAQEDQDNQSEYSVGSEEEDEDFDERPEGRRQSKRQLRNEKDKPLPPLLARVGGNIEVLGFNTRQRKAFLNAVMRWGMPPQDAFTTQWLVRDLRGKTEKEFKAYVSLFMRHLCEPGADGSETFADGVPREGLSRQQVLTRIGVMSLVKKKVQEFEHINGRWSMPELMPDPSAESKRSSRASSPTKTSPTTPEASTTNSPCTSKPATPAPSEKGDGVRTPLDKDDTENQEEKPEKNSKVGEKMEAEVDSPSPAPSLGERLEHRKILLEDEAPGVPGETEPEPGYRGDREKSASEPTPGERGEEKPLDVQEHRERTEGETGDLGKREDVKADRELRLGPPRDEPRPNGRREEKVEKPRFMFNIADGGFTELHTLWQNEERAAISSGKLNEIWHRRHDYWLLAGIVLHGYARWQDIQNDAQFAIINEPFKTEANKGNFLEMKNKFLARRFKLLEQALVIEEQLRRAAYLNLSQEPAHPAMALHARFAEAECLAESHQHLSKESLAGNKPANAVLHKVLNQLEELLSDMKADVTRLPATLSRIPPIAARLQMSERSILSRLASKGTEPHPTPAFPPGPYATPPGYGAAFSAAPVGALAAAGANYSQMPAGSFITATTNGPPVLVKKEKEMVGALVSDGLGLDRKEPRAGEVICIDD
UniProt A2A8L1: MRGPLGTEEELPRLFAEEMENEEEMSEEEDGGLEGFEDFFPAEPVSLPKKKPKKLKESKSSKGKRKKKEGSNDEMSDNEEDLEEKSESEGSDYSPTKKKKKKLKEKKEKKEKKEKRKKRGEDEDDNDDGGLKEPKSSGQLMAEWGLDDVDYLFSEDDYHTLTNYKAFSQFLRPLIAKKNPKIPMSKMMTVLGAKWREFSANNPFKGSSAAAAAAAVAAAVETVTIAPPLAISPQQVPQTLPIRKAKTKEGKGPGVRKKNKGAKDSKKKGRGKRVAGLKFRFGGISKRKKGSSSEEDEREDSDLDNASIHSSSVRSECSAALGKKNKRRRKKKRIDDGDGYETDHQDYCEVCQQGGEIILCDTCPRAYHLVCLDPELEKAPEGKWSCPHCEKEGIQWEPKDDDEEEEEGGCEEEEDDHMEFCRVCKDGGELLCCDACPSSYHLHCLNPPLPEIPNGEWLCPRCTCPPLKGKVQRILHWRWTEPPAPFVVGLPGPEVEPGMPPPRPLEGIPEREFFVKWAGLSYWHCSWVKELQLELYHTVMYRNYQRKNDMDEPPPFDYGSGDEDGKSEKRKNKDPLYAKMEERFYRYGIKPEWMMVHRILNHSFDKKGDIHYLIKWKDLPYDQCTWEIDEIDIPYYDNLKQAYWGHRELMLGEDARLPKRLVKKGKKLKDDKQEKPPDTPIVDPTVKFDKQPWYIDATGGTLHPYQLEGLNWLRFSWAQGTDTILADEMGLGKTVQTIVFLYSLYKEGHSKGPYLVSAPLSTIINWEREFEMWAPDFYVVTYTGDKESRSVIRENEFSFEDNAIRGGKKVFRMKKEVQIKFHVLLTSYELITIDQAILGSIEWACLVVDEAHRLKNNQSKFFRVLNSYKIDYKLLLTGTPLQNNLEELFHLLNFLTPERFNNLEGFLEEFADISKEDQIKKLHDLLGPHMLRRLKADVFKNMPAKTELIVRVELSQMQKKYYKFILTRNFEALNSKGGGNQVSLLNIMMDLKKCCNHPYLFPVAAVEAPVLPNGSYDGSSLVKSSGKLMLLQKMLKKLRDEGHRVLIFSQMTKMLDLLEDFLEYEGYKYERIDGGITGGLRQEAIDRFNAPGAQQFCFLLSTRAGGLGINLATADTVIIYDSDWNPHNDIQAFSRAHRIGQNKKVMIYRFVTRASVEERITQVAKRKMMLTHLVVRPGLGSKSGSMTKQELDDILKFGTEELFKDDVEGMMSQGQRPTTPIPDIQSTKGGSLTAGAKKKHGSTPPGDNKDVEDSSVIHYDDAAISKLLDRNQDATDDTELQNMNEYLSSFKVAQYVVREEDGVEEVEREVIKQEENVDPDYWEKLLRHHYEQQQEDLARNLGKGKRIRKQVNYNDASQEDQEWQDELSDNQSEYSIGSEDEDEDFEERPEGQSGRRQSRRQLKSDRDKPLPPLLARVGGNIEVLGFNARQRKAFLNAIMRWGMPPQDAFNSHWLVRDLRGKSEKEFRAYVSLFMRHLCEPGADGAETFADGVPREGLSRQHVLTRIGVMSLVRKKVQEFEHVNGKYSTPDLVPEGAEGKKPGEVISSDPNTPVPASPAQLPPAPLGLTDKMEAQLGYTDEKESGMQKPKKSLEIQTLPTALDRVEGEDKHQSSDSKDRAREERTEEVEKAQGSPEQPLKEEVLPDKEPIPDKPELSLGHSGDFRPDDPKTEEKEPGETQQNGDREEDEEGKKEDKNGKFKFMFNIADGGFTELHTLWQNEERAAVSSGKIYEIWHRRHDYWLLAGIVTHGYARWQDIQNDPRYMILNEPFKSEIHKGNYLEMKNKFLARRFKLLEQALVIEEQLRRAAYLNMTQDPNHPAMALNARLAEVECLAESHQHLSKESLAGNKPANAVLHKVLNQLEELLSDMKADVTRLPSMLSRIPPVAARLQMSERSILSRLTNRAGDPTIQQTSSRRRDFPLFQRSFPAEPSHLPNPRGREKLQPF

Target: HDAC2 (mouse (endogenous in embryonic cortex)) (UniProt P70288)
Test: affinity purification with mass spectrometry; lysates of mouse cortices dissected at E12.5, E15.5 and E18.5 incubated with HDAC2 antibody or normal IgG; immune complexes eluted, digested with lys-C and trypsin, MS/MS

CHD3 (from UniProt B1AR17 1-2055)
binding: binds

CHD5 (from UniProt A2A8L1 1-1946)
binding: binds
